For at least one compound, name, drawing or mass did not settle the structure.
Test system: Enterococcus faecalis
Assay: Growth of the isolate in antibiotic mediums, sample 3
Format: cell-based
Conditions: microorganism isolated in sample 3 (Enterococcus faecalis); grown in antibiotic medium
Text: Each microorganism was growth in at least two antibiotic mediums, in which the improved method predicted resistance, and at least two antibiotic mediums in which the improved method predicted susceptibility, in order to corroborate the obtained results.

Row | SMILES | Result
1 | CCC[C@@H]1C[C@@H](C(=O)N[C@@H]([C@H]2O[C@H](SC)[C@H](O)[C@@H](O)[C@H]2O)[C@H](C)Cl)N(C)C1 [Clindamycin] | Resistant
2 | CN(C)[C@@H]1C(O)=C(C(N)=O)C(=O)[C@@]2(O)C(O)=C3C(=O)c4c(O)cccc4[C@@](C)(O)[C@H]3[C@H](O)[C@@H]12 [Oxytetracycline] | Resistant
